PubChem BioAssay AID652272 – Drosophila RNAi Screening Center, 2013
The deposit covers about 21,000 reagents; shown is a random part of those with a known target gene and a result. In the full data, 503 (2.4%) got an active call. 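Raw plate light values, not normalised; calls rest on replicate z-scores that were not deposited; hits include reporter decreases as well as increases.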 The record does not give: the amount of reagent, the time to read-out.

Assay: 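Finding fly genes that regulate Hedgehog signal transduction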 (primary screen)
Cell system: Drosophila clone 8 (Cl8) cells
Reagent: long dsRNA against Drosophila genes
Read-out: 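Plate reader light from a firefly reporter under a ptc promoter fragment that responds to Hedgehog, with Renilla light as transfection reference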
Scale: firefly Hh reporter signal: higher = more ptc reporter light; Renilla reference signal: higher = more Renilla control light
Call rule: 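Hit when the z-score averaged over two replicates is under -2 or over +3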
Calls: active = hit: reporter lowered or raised; inactive = not a hit

eEF1beta (eukaryotic translation elongation factor 1 beta) [DRSC07419] scored firefly Hh reporter signal, replicate 1 = 99702; firefly Hh reporter signal, replicate 2 = 65367; Renilla reference signal, replicate 1 = 4119; Renilla reference signal, replicate 2 = 3077; inactive. CG1371 [DRSC06409] scored firefly Hh reporter signal, replicate 1 = 58832; firefly Hh reporter signal, replicate 2 = 38162; Renilla reference signal, replicate 1 = 2585; Renilla reference signal, replicate 2 = 1668; inactive. After knock-down of Surf6 (Surfeit 6) [DRSC15588], the screen gave firefly Hh reporter signal, replicate 1 = 1.02e5; firefly Hh reporter signal, replicate 2 = 80471; Renilla reference signal, replicate 1 = 4852; Renilla reference signal, replicate 2 = 3762; inactive. For CG11369 [DRSC17779], the entry reads firefly Hh reporter signal, replicate 1 = 1.09e5; firefly Hh reporter signal, replicate 2 = 2.75e5; Renilla reference signal, replicate 1 = 3356; Renilla reference signal, replicate 2 = 9568; inactive. Silencing of CG17560 [DRSC15242] came out at: firefly Hh reporter signal, replicate 1 = 87687; firefly Hh reporter signal, replicate 2 = 1.37e5; Renilla reference signal, replicate 1 = 3269; Renilla reference signal, replicate 2 = 3805; inactive. CG2113 [DRSC08554] scored firefly Hh reporter signal, replicate 1 = 69523; firefly Hh reporter signal, replicate 2 = 31004; Renilla reference signal, replicate 1 = 2216; Renilla reference signal, replicate 2 = 2547; inactive.

After knock-down of Rbcn-3B (Rabconnectin-3B) [DRSC18574], the record shows firefly Hh reporter signal, replicate 1 = 98353; firefly Hh reporter signal, replicate 2 = 1.64e5; Renilla reference signal, replicate 1 = 4128; Renilla reference signal, replicate 2 = 6006; inactive. Knock-down of Eip63E (Ecdysone-induced protein 63E) [DRSC08658] came out at: firefly Hh reporter signal, replicate 1 = 1.06e5; firefly Hh reporter signal, replicate 2 = 1.04e5; Renilla reference signal, replicate 1 = 4339; Renilla reference signal, replicate 2 = 3546; inactive. DppIII (Dipeptidyl aminopeptidase III) [DRSC16241] gave firefly Hh reporter signal, replicate 1 = 89681; firefly Hh reporter signal, replicate 2 = 1.37e5; Renilla reference signal, replicate 1 = 2256; Renilla reference signal, replicate 2 = 4429; inactive. With knock-down of 128up (upstream of RpIII128) [DRSC05027], the screen gave firefly Hh reporter signal, replicate 1 = 49824; firefly Hh reporter signal, replicate 2 = 60231; Renilla reference signal, replicate 1 = 1963; Renilla reference signal, replicate 2 = 2347; inactive. With knock-down of Kr (Kruppel) [DRSC04622], the screen gave firefly Hh reporter signal, replicate 1 = 66392; firefly Hh reporter signal, replicate 2 = 47568; Renilla reference signal, replicate 1 = 1382; Renilla reference signal, replicate 2 = 4243; inactive. Depletion of tko (technical knockout) [DRSC18844] came out at: firefly Hh reporter signal, replicate 1 = 66168; firefly Hh reporter signal, replicate 2 = 2.71e5; Renilla reference signal, replicate 1 = 2297; Renilla reference signal, replicate 2 = 8363; inactive.

Cdc5 (Cell division cycle 5) [DRSC08577] scored firefly Hh reporter signal, replicate 1 = 45190; firefly Hh reporter signal, replicate 2 = 46240; Renilla reference signal, replicate 1 = 3211; Renilla reference signal, replicate 2 = 2640; active. For Amph (Amphiphysin) [DRSC07578], the entry reads firefly Hh reporter signal, replicate 1 = 98581; firefly Hh reporter signal, replicate 2 = 62272; Renilla reference signal, replicate 1 = 5095; Renilla reference signal, replicate 2 = 2248; inactive.
